Data: article PMC7760575
No constants are given. Whether binding was seen depends on the method and setting. Binding calls can cover weak binding; strength is not graded here. For some assays here: Tags and fused reporters may be left off the sequences shown.

Sequences of proteins named here, by UniProt entry; tags and fusion partners are left off. A change or cut given only in a name is not applied to a line headed by its entry. Residues count along the entry.
UniProt Q06681, residues 482-1259: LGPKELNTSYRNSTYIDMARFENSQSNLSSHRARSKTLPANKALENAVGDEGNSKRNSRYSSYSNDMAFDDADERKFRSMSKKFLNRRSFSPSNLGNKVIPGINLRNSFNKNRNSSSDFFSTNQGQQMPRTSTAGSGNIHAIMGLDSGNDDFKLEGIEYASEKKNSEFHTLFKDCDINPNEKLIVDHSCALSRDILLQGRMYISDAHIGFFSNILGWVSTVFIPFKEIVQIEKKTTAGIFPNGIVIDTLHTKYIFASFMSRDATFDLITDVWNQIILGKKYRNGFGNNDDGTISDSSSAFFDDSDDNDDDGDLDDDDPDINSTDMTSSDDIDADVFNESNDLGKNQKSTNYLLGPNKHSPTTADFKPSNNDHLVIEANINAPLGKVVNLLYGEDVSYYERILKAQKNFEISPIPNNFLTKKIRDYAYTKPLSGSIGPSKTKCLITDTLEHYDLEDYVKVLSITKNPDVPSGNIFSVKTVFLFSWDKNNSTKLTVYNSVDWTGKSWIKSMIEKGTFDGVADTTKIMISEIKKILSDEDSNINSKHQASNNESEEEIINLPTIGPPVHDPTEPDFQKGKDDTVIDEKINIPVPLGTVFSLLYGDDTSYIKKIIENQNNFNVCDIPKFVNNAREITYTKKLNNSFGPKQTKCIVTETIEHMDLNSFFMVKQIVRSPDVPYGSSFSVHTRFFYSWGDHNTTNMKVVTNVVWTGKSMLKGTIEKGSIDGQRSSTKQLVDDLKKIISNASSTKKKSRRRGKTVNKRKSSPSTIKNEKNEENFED

What was measured:
[1] = biological target: T1, GST-Laf1 (S. cerevisiae) (UniProt Q03177); experiment: pull-down; GST fusion (bait) and His6-tagged Lam fragment incubated 1 h at 4 °C, complexes on glutathione-agarose beads; binding buffer 81 mM NaCl, 4.5 mM KCl, 1.35 mM MgCl2, 0.09% Triton X-100, 0.1 mg/mL BSA, 20 mM HEPES pH 7.5; four washes; immunoblot (anti-His, anti-GST); both purified
T1 sequence: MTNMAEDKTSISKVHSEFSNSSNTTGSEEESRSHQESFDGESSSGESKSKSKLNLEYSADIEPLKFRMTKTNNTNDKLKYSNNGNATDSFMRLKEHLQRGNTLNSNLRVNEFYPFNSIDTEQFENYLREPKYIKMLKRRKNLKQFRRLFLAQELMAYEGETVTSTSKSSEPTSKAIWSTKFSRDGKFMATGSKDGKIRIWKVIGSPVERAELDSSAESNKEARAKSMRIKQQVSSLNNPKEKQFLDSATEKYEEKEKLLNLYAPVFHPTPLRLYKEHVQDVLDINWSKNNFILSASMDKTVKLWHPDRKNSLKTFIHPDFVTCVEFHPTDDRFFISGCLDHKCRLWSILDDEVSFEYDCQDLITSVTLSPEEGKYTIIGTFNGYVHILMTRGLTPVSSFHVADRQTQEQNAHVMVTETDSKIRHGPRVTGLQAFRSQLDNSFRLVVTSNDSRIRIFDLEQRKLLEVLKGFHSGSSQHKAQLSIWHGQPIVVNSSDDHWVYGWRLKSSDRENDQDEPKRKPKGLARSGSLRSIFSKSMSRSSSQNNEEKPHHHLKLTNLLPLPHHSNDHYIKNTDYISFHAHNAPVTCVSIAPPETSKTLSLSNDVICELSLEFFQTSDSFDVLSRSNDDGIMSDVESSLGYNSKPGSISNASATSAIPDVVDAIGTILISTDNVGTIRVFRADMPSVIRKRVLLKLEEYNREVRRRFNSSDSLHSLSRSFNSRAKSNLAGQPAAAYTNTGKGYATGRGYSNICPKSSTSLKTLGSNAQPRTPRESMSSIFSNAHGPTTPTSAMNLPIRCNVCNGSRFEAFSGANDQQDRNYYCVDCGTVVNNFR

[2] = biological target: GST-Laf1(S709A S710A) (S. cerevisiae) (UniProt Q03177); experiment: as above

binding [1]	binding [2]	Substance
binds		Lam2(482-1259; T518A L519A)-(His)6 (from UniProt Q06681) (domain or fragment)
	binds	Lam2(482–1259)-(His)6 (from UniProt Q06681 482-1259) (domain or fragment)
